Consider 10 molecules from US12729225B2, “Non-canonical SWI/SNF complex and uses thereof” (Dana-Farber Cancer Institute, Inc., priority 2018, dated 2026).

In the series the test system is mSWI/SNF complexes. Put plainly: mSWI/SNF complex purification with HA-tagged baits and mass spectrometry (peptide counts). Also on record: species or system human. As to conditions: 293_HA-BRD7 bait purification, mass spectrometry; for Total: total peptides per co-purified protein; for Unique: unique peptides per co-purified protein.

B1: COPA (protein, UniProt P53621 1-1224, looked up)
Coatomer subunit alpha: MLTKFETKSARVKGLSFHPKRPWILTSLHNGVIQLWDYRMCTLIDKFDEHDGPVRGIDFHKQQPLFVSGGDDYKIKVWNYKLRRCLFTLLGHLDYIRTTFFHHEYPWILSASDDQTIRVWNWQSRTCVCVLTGHNHYVMCAQFHPTEDLVVSASLDQTVRVWDISGLRKKNLSPGAVESDVRGITGVDLFGTTDAVVKHVLEGHDRGVNWAAFHPTMPLIVSGADDRQVKIWRMNESKAWEVDTCRGHYNNVSCAVFHPRQELILSNSEDKSIRVWDMSKRTGVQTFRRDHDRFWVLAAHPNLNLFAAGHDGGMIVFKLERERPAYAVHGNMLHYVKDRFLRQLDFNSSKDVAVMQLRSGSKFPVFNMSYNPAENAVLLCTRASNLENSTYDLYTIPKDADSQNPDAPEGKRSSGLTAVWVARNRFAVLDRMHSLLIKNLKNEITKKVQVPNCDEIFYAGTGNLLLRDADSITLFDVQQKRTLASVKISKVKYVIWSADMSHVALLAKHAIVICNRKLDALCNIHENIRVKSGAWDESGVFIYTTSNHIKYAVTTGDHGIIRTLDLPIYVTRVKGNNVYCLDRECRPRVLTIDPTEFKFKLALINRKYDEVLHMVRNAKLVGQSIIAYLQKKGYPEVALHFVKDEKTRFSLALECGNIEIALEAAKALDDKNCWEKLGEVALLQGNHQIVEMCYQRTKNFDKLSFLYLITGNLEKLRKMMKIAEIRKDMSGHYQNALYLGDVSERVRILKNCGQKSLAYLTAATHGLDEEAESLKETFDPEKETIPDIDPNAKLLQPPAPIMPLDTNWPLLTVSKGFFEGTIASKGKGGALAADIDIDTVGTEGWGEDAELQLDEDGFVEATEGLGDDALGKGQEEGGGWDVEEDLELPPELDISPGAAGGAEDGFFVPPTKGTSPTQIWCNNSQLPVDHILAGSFETAMRLLHDQVGVIQFGPYKQLFLQTYARGRTTYQALPCLPSMYGYPNRNWKDAGLKNGVPAVGLKLNDLIQRLQLCYQLTTVGKFEEAVEKFRSILLSVPLLVVDNKQEIAEAQQLITICREYIVGLSVETERKKLPKETLEQQKRICEMAAYFTHSNLQPVHMILVLRTALNLFFKLKNFKTAATFARRLLELGPKPEVAQQTRKILSACEKNPTDAYQLNYDMHNPFDICAASYRPIYRGKPVEKCPLSGACYSPEFKGQICRVTTVTEIGKDVIGLRISPLQFR
In the case of B1, the Total is reported as 3 and the Unique was 3.

B2: FAF2 (protein, UniProt Q96CS3 2-445, looked up)
FAS-associated factor 2: AAPEERDLTQEQTEKLLQFQDLTGIESMDQCRHTLEQHNWNIEAAVQDRLNEQEGVPSVFNPPPSRPLQVNTADHRIYSYVVSRPQPRGLLGWGYYLIMLPFRFTYYTILDIFRFALRFIRPDPRSRVTDPVGDIVSFMHSFEEKYGRAHPVFYQGTYSQALNDAKRELRFLLVYLHGDDHQDSDEFCRNTLCAPEVISLINTRMLFWACSTNKPEGYRVSQALRENTYPFLAMIMLKDRRMTVVGRLEGLIQPDDLINQLTFIMDANQTYLVSERLEREERNQTQVLRQQQDEAYLASLRADQEKERKKREERERKRRKEEEVQQQKLAEERRRQNLQEEKERKLECLPPEPSPDDPESVKIIFKLPNDSRVERRFHFSQSLTVIHDFLFSLKESPEKFQIEANFPRRVLPCIPSEEWPNPPTLQEAGLSHTEVLFVQDLTDE
B2 gave a Total of 3 and a Unique of 3.

B3: RAB10 (protein, UniProt P61026 1-200, looked up)
Ras-related protein Rab-10: MAKKTYDLLFKLLLIGDSGVGKTCVLFRFSDDAFNTTFISTIGIDFKIKTVELQGKKIKLQIWDTAGQERFHTITTSYYRGAMGIMLVYDITNGKSFENISKWLRNIDEHANEDVERMLLGNKCDMDDKRVVPKGKGEQIAREHGIRFFETSAKANINIEKAFLTLAEDILRKTPVKEPNSENVDISSGGGVTGWKSKCC
B3 showed a Total of 3 and a Unique of 3.

B4: ACAD9 (protein, UniProt Q9H845 38-621, looked up)
Complex I assembly factor …: AFAKELFLGKIKKKEVFPFPEVSQDELNEINQFLGPVEKFFTEEVDSRKIDQEGKIPDETLEKLKSLGLFGLQVPEEYGGLGFSNTMYSRLGEIISMDGSITVTLAAHQAIGLKGIILAGTEEQKAKYLPKLASGEHIAAFCLTEPASGSDAASIRSRATLSEDKKHYILNGSKVWITNGGLANIFTVFAKTEVVDSDGSVKDKITAFIVERDFGGVTNGKPEDKLGIRGSNTCEVHFENTKIPVENILGEVGDGFKVAMNILNSGRFSMGSVVAGLLKRLIEMTAEYACTRKQFNKRLSEFGLIQEKFALMAQKAYVMESMTYLTAGMLDQPGFPDCSIEAAMVKVFSSEAAWQCVSEALQILGGLGYTRDYPYERILRDTRILLIFEGTNEILRMYIALTGLQHAGRILTTRIHELKQAKVSTVMDTVGRRLRDSLGRTVDLGLTGNHGVVHPSLADSANKFEENTYCFGRTVETLLLRFGKTIMEEQLVLKRVANILINLYGMTAVLSRASRSIRIGLRNHDHEVLLANTFCVEAYLQNLFSLSQLDKYAPENLDEQIKKVSQQILEKRAYICAHPLDRTC
B4 returned a Total of 3 and a Unique of 3.

B5: LRRC59 (protein, UniProt Q96AG4 1-307, looked up)
Leucine-rich …: MTKAGSKGGNLRDKLDGNELDLSLSDLNEVPVKELAALPKATILDLSCNKLTTLPSDFCGLTHLVKLDLSKNKLQQLPADFGRLVNLQHLDLLNNKLVTLPVSFAQLKNLKWLDLKDNPLDPVLAKVAGDCLDEKQCKQCANKVLQHMKAVQADQERERQRRLEVEREAEKKREAKQRAKEAQERELRKREKAEEKERRRKEYDALKAAKREQEKKPKKEANQAPKSKSGSRPRKPPPRKHTRSWAVLKLLLLLLLFGVAGGLVACRVTELQQQPLCTSVNTIYDNAVQGLRRHEILQWVLQTDSQQ
B5 had a Total of 3 and a Unique of 3.

B6: ATP5J2 (protein, UniProt P56134 2-94, looked up)
ATP synthase F(0) complex …: ASVGECPAPVPVKDKKLLEVKLGELPSWILMRDFSPSGIFGAFQRGYYRYYNKYINVKKGSISGITMVLACYVLFSYSFSYKHLKHERLRKYH
B6 yielded a Total of 3 and a Unique of 3.

B7: ACSL3 (protein, UniProt O95573 1-720, looked up)
Fatty acid CoA ligase Acsl3: MNNHVSSKPSTMKLKHTINPILLYFIHFLISLYTILTYIPFYFFSESRQEKSNRIKAKPVNSKPDSAYRSVNSLDGLASVLYPGCDTLDKVFTYAKNKFKNKRLLGTREVLNEEDEVQPNGKIFKKVILGQYNWLSYEDVFVRAFNFGNGLQMLGQKPKTNIAIFCETRAEWMIAAQACFMYNFQLVTLYATLGGPAIVHALNETEVTNIITSKELLQTKLKDIVSLVPRLRHIITVDGKPPTWSEFPKGIIVHTMAAVEALGAKASMENQPHSKPLPSDIAVIMYTSGSTGLPKGVMISHSNIIAGITGMAERIPELGEEDVYIGYLPLAHVLELSAELVCLSHGCRIGYSSPQTLADQSSKIKKGSKGDTSMLKPTLMAAVPEIMDRIYKNVMNKVSEMSSFQRNLFILAYNYKMEQISKGRNTPLCDSFVFRKVRSLLGGNIRLLLCGGAPLSATTQRFMNICFCCPVGQGYGLTESAGAGTISEVWDYNTGRVGAPLVCCEIKLKNWEEGGYFNTDKPHPRGEILIGGQSVTMGYYKNEAKTKADFFEDENGQRWLCTGDIGEFEPDGCLKIIDRKKDLVKLQAGEYVSLGKVEAALKNLPLVDNICAYANSYHSYVIGFVVPNQKELTELARKKGLKGTWEELCNSCEMENEVLKVLSEAAISASLEKFEIPVKIRLSPEPWTPETGLVTDAFKLKRKELKTHYQADIERMYGRK
As for B7, the Total was 3 and the Unique came to 3.

B8: AGPS (protein, UniProt O00116 59-658, looked up)
Alkyldihydroxyacetonephosphate …: KARRAASAATAAPTATPAAQESGTIPKKRQEVMKWNGWGYNDSKFIFNKKGQIELTGKRYPLSGMGLPTFKEWIQNTLGVNVEHKTTSKASLNPSDTPPSVVNEDFLHDLKETNISYSQEADDRVFRAHGHCLHEIFLLREGMFERIPDIVLWPTCHDDVVKIVNLACKYNLCIIPIGGGTSVSYGLMCPADETRTIISLDTSQMNRILWVDENNLTAHVEAGITGQELERQLKESGYCTGHEPDSLEFSTVGGWVSTRASGMKKNIYGNIEDLVVHIKMVTPRGIIEKSCQGPRMSTGPDIHHFIMGSEGTLGVITEATIKIRPVPEYQKYGSVAFPNFEQGVACLREIAKQRCAPASIRLMDNKQFQFGHALKPQVSSIFTSFLDGLKKFYITKFKGFDPNQLSVATLLFEGDREKVLQHEKQVYDIAAKFGGLAAGEDNGQRGYLLTYVIAYIRDLALEYYVLGESFETSAPWDRVVDLCRNVKERITRECKEKGVQFAPFSTCRVTQTYDAGACIYFYFAFNYRGISDPLTVFEQTEAAAREEILANGGSLSHHHGVGKLRKQWLKESISDVGFGMLKSVKEYVDPNNIFGNRNLL
For B8, the Total turned out to be 3 and the Unique was 3.

B9: RFC1 (protein, UniProt P35251 1-1148, looked up)
Replication factor C subunit 1: MDIRKFFGVIPSGKKLVSETVKKNEKTKSDEETLKAKKGIKEIKVNSSRKEDDFKQKQPSKKKRIIYDSDSESEETLQVKNAKKPPEKLPVSSKPGKISRQDPVTYISETDEEDDFMCKKAASKSKENGRSTNSHLGTSNMKKNEENTKTKNKPLSPIKLTPTSVLDYFGTGSVQRSNKKMVASKRKELSQNTDESGLNDEAIAKQLQLDEDAELERQLHEDEEFARTLAMLDEEPKTKKARKDTEAGETFSSVQANLSKAEKHKYPHKVKTAQVSDERKSYSPRKQSKYESSKESQQHSKSSADKIGEVSSPKASSKLAIMKRKEESSYKEIEPVASKRKENAIKLKGETKTPKKTKSSPAKKESVSPEDSEKKRTNYQAYRSYLNREGPKALGSKEIPKGAENCLEGLIFVITGVLESIERDEAKSLIERYGGKVTGNVSKKTNYLVMGRDSGQSKSDKAAALGTKIIDEDGLLNLIRTMPGKKSKYEIAVETEMKKESKLERTPQKNVQGKRKISPSKKESESKKSRPTSKRDSLAKTIKKETDVFWKSLDFKEQVAEETSGDSKARNLADDSSENKVENLLWVDKYKPTSLKTIIGQQGDQSCANKLLRWLRNWQKSSSEDKKHAAKFGKFSGKDDGSSFKAALLSGPPGVGKTTTASLVCQELGYSYVELNASDTRSKSSLKAIVAESLNNTSIKGFYSNGAASSVSTKHALIMDEVDGMAGNEDRGGIQELIGLIKHTKIPIICMCNDRNHPKIRSLVHYCFDLRFQRPRVEQIKGAMMSIAFKEGLKIPPPAMNEIILGANQDIRQVLHNLSMWCARSKALTYDQAKADSHRAKKDIKMGPFDVARKVFAAGEETAHMSLVDKSDLFFHDYSIAPLFVQENYIHVKPVAAGGDMKKHLMLLSRAADSICDGDLVDSQIRSKQNWSLLPAQAIYASVLPGELMRGYMTQFPTFPSWLGKHSSTGKHDRIVQDLALHMSLRTYSSKRTVNMDYLSLLRDALVQPLTSQGVDGVQDVVALMDTYYLMKEDFENIMEISSWGGKPSPFSKLDPKVKAAFTRAYNKEAHLTPYSLQAIKASRHSTSPSLDSEYNEELNEDDSQSDEKDQDAIETDAMIKKKTKSSKPSKPEKDKEPRKGKGKSSKK
Molecule B9 returned a Total of 3 and a Unique of 3.

B10: SSR1 (protein, UniProt P43307 19-286, looked up)
Translocon-associated protein …: VLFRGGPRGLLAVAQDLTEDEETVEDSIIEDEDDEAEVEEDEPTDLVEDKEEEDVSGEPEASPSADTTILFVKGEDFPANNIVKFLVGFTNKGTEDFIVESLDASFRYPQDYQFYIQNFTALPLNTVVPPQRQATFEYSFIPAEPMGGRPFGLVINLNYKDLNGNVFQDAVFNQTVTVIEREDGLDGETIFMYMFLAGLGLLVIVGLHQLLESRKRKRPIQKVEMGTSSQNDVDMSWIPQETLNQINKASPRRLPRKRAQKRSVGSDE
The molecule B10 registered a Total of 3 and a Unique of 3.
